According to patent US20250057950A1 (ORICELL THERAPEUTICS, published 2025):
Results are given in words; binding and its absence hold for the method and conditions named. Some results given as binding are weak or reduced against the parent protein; the word gives no strength. Sequences can lack the tags named with a protein.

Sequences of proteins named here, by UniProt entry; tags and fusion partners are left off.
UniProt Q9NZD1: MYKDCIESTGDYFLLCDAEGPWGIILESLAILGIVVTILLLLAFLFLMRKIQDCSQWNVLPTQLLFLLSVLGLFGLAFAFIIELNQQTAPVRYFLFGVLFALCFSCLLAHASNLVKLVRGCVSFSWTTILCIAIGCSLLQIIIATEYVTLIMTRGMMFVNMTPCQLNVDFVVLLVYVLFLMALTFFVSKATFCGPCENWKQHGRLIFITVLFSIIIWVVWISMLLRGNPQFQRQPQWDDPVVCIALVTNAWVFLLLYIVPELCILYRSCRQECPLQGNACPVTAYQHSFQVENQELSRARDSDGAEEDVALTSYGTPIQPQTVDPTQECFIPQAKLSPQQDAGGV

Legend:
[1] = target: human G protein-coupled receptor class C group 5 member D (GPRC5D) protein (human) (UniProt Q9NZD1); assay: flow cytometry on CHO-GPRC5D cells, with and without pre-bound G5VHH2-hIgG1Fc as competitor
[2] = target: human G protein-coupled receptor class C group 5 member D (GPRC5D) protein (human) (UniProt Q9NZD1); assay: flow cytometry on CHO-GPRC5D cells, anti-6xHis detection; G5VHH1-his titrated alone and on cells pre-incubated with a fixed concentration of G5VHH2-hFc

binding [1]: binds
binding [2]: binds
B1: G5VHH1-His (VHH)
VHH: EVQLVESGGGLVQPGGSLRLSCAASGRIFSRDAMGWFRQAPGKGRELVAAINSSGGNTYYPDSVEGRFTISRDNAKRMVYLQMNSLRAEDTAVYYCAARGVRWTSTTAYGYNYWGQGTQVTVSS
